Test results as given in paper PMC4612716.
No constants are given. Whether binding was seen depends on the method and setting. Binding seen in cells or lysates may run through a third protein. Some results given as binding are weak or reduced against the parent protein; the word gives no strength.

Amino acid sequences for entries named in this document (tags omitted). Residues count along the entry.
UniProt P15116, residues 746-906: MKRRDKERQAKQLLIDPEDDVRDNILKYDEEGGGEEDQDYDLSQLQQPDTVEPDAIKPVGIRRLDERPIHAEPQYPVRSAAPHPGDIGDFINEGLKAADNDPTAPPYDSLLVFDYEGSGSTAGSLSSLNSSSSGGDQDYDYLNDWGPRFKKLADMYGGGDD

Molecular target: DsRed-tagged N-cadherin cytoplasmic domain (DNCT) (UniProt P15116)
Assay: co-IP; anti-FLAG mAb preabsorbed to protein G-Sepharose on lysates of DsRed+, DNCT+ or DNCTSA+ MDCK T23 cells; lysis in 25 mM Tris-HCl pH 7.4, 1% Triton X-100, 2 mM EDTA; immunoblot of co-precipitates

B1: β-catenin (protein, UniProt B6V8E6 1-781)
chain: MATQADLMELDMAMEPDRKAAVSHWQQQSYLDSGIHSGATTTAPSLSGKGNPEEEDVDTTQVLYEWEQGFSQSFTQEQVADIDGQYAMTRAQRVRAAMFPETLDEGMQIPSTQFDAAHPTNVQRLAEPSQMLKHAVVNLINYQDDAELATRAIPELTKLLNDEDQVVVNKAAVMVHQLSKKEASRHAIMRSPQMVSAIVRTMQNTNDVETARCTAGTLHNLSHHREGLLAIFKSGGIPALVKMLGSPVDSVLFYAITTLHNLLLHQEGAKMAVRLAGGLQKMVALLNKTNVKFLAITTDCLQILAYGNQESKLIILASGGPQALVNIMRTYTYEKLLWTTSRVLKVLSVCSSNKPAIVEAGGMQALGLHLTDPSQRLVQNCLWTLRNLSDAATKQEGMEGLLGTLVQLLGSDDINVVTCAAGILSNLTCNNYKNKMMVCQVGGIEALVRTVLRAGDREDITEPAICALRHLTSRHQEAEMAQNAVRLHYGLPVVVKLLHPPSHWPLIKATVGLIRNLALCPANHAPLREQGAIPRLVQLLVRAHQDTQRRTSMGGTQQQFVEGVRMEEIVEGCTGALHILARDVHNRIVIRGLNTIPLFVQLLYSPIENIQRVAAGVLCELAQDKEAAEAIEAEGATAPLTELLHSRNEGVATYAAAVLFRMSEDKPQDYKKRLSVELTSSLFRTEPMAWNETADLGLDIGAQGEPLGYRQDDPSYRSFHSGGYGQDALGMDPMMEHEMGGHHPGADYPVDGLPDLGHAQDLMDGLPPGDSNQLAWFDTDL
- binding: binds
